# No constants are given. Whether binding was seen depends on the method and setting. In cells and extracts the contact can be indirect. These calls come from enrichment with a bait or labelling near it, and not all partners need be listed.
# Molecular target: T1, TAP-tag-GFP-SH3BP2 (mouse) (UniProt Q06649)
# T1 sequence: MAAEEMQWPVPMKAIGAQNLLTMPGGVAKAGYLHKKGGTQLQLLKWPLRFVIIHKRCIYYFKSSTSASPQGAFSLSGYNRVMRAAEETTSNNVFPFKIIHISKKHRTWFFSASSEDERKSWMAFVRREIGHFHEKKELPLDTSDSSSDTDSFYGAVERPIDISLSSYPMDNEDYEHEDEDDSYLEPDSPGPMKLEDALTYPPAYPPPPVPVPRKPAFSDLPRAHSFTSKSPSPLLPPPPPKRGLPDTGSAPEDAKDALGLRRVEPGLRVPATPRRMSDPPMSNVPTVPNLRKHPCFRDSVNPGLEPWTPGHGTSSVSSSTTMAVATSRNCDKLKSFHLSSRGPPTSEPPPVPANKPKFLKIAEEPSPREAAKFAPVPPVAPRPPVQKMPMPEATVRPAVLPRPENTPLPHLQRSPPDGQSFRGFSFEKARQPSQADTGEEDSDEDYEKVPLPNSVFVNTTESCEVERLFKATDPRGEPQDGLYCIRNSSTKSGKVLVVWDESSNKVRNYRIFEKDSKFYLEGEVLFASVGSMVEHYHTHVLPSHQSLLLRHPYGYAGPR
# Assay: affinity purification with mass spectrometry
row,binding,Substance
1,binds,"α subunit of AChR (endogenous, C2C12 myotubes) (from UniProt P04756 21-457)"
2,binds,"γ subunit of AChR (endogenous, C2C12 myotubes) (from UniProt P04760 23-519)"

# Reference: article doi:10.1101/2024.05.23.595491 (bioRxiv, 2024)
